{
  "sequences": {"note": "By UniProt entry, the sequences of proteins in these tests, tags left out.", "UniProt Q03431, whole entry, looked up": "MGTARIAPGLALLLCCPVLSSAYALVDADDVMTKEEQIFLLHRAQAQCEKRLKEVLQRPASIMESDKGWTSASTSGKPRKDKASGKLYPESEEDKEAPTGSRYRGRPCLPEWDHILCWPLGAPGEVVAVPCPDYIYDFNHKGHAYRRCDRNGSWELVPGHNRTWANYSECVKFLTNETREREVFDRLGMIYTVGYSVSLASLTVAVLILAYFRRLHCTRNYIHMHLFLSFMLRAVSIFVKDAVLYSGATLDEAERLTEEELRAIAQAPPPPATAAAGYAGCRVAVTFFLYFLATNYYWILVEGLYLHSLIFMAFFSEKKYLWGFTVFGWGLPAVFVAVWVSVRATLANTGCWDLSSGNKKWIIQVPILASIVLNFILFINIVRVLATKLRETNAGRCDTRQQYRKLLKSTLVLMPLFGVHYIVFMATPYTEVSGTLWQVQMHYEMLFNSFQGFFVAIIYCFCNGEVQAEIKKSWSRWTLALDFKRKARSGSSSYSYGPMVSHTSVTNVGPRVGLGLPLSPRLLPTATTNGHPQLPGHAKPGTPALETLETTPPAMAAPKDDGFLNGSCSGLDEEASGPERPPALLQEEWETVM"},
  "source": "PubChem BioAssay AID743266",
  "about": "(National Center for Advancing Translational Sciences (NCATS), 2014)",
  "note": "Among all 410,000 compounds or so, about 310 (0.076%) were called active. This list was built around the results that the source calls inconclusive (neither active nor inactive); the mix of calls is not that of the screen. The call rests on the fitted dose curve; in most records, active means well fitted activation curve with a large enough effect; inconclusive means small, poorly fitted or top-dose-only effect, or another doubt; inactive means no such curve, though single readings can be large or run the other way. A potency beside an inconclusive call is a rough fit, not a confirmed value. Potency means the concentration at half of the fitted maximal effect.",
  "data": [
    {"molecular_target": "Parathyroid hormone/parathyroid hormone-related peptide receptor (Homo sapiens) (UniProt Q03431)", "assay": "qHTS for PTHR1 Agonists: Primary Screen; further: nearly all actives have a fitted effect of over 55% in size", "settings": "HEK293 GP2 PTHR1 cells, GloSensor cAMP luminescence, 1 h; activation: at 115 µM (top of the series) unless noted; series mostly up to 115 µM", "method_in_brief": "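HEK-293-derived GP2 cells expressing PTHR1 and a GloSensor cAMP reporter, 3,000/well, plated overnight, given luciferin plus IBMX (each 0.5 mM as added) for 1 h at 37 °C, then compound for 1 h at 37 °C. Luminescence was read after 15 min at room temperature.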", "values": [
      {"smiles": "Cc1ccc(OCc2nc(-c3ccc(Cl)cc3)n[nH]2)cc1", "Potency": "inconclusive: 8.91 µM [activator, partial curve, poor fit]"},
      {"smiles": "Cc1ccc(-n2cnc(N)c2C(=O)c2cccc([N+](=O)[O-])c2)cc1", "activation": "inconclusive: 35.7% [activator]"},
      {"smiles": "COc1cccc(-c2nc(CS(=O)(=O)CC(=O)N3CCN(c4ccccn4)CC3)c(C)o2)c1", "Potency": "inactive"},
      {"smiles": "Cc1ccn2c(NC3CCCCC3)c(C)nc2c1", "Potency": "inconclusive: 44.7 µM [activator, single point]"},
      {"smiles": "CCOC(=O)N1CCN(Cc2nc(N)nc(Nc3ccc(OCC)cc3)n2)CC1", "Potency": "inactive"},
      {"smiles": "CCN(CC)CCNC(=O)C(=O)Nc1c2c(nn1-c1ccc(F)cc1)CSC2", "Potency": "inactive"},
      {"smiles": "CC(=O)c1ccccc1OC(=O)CCN1C(=O)c2ccccc2C1=O", "Potency": "inconclusive: 35.5 µM [activator, single point]"},
      {"smiles": "O=c1[nH]c2ccccc2c(O)c1-[n+]1ccccc1", "activation": "inconclusive: 31.1% [activator]"},
      {"smiles": "O=C(CN1CCN(CC(=O)Nc2ccc(OCc3ccccc3)cc2)CC1)Nc1ccc(F)cc1", "Potency": "inactive"},
      {"smiles": "Cc1[nH]nc2ncc(C(=O)c3ccccc3O)cc12", "Potency": "inconclusive: 2.51 µM [activator, partial curve, poor fit]"},
      {"smiles": "COc1ccc(Br)cc1/C=N/n1nnnc1N", "Potency": "inconclusive: 112 µM [activator, single point]"},
      {"smiles": "Cc1cc(-c2nnc(SCC(=O)N3C(C)CCCC3C)o2)no1", "note": "(stereo not drawn)", "Potency": "inactive"},
      {"smiles": "CC(=O)N1CCN(c2cc(N3CCCC3)c(F)cc2[N+](=O)[O-])CC1", "activation": "inconclusive: -41.8% [activator]"},
      {"smiles": "Cc1nnc(NC(=O)C2CCCN2C(=O)Nc2ccccc2)s1", "note": "(stereo not drawn)", "Potency": "inconclusive: 39.8 µM [activator, partial curve, poor fit]"},
      {"smiles": "O=C1C(c2cccc(Br)c2)N(CCc2ccccc2)C(=O)CN1C1CCCCC1", "note": "(stereo not drawn)", "Potency": "inconclusive: 10 µM [activator, full curve, poor fit]"},
      {"smiles": "COc1ccc(CCNC(=O)c2ccc(N3CCCC3=O)cc2)cc1OC", "Potency": "inactive"},
      {"smiles": "CCOC(=O)C1=C(C)NC(=O)C1(NC(=O)c1cccnc1)C(F)(F)F", "note": "(stereo not drawn)", "activation": "inconclusive: 58% [activator] [at 57.5 µM]"},
      {"smiles": "O=C(NC1CCCCC1)C1c2ccccc2OCC(=O)N1CCc1c[nH]c2ccccc12", "note": "(stereo not drawn)", "activation": "inconclusive: 31.2% [activator]"},
      {"smiles": "Cc1nc2sccn2c(=O)c1S(=O)(=O)NCC1CCN(Cc2ccccc2Cl)CC1", "activation": "inconclusive: 25.5% [activator]"},
      {"smiles": "COc1ccc(OC)c(NC(=O)c2ccc3c(c2)c(C)c(C)n3Cc2ccc(F)cc2)c1", "activation": "inconclusive: 88.8% [activator]"},
      {"smiles": "Cc1ccc(C)c(-c2cc(C(=O)N/N=C/c3cccnc3)c3ccccc3n2)c1", "Potency": "inconclusive: 20 µM [activator, single point]"},
      {"smiles": "Cc1noc(C)c1NC(=O)Nc1ccc2c(c1)C(=O)N([C@H](C)CO)C[C@H](C)[C@@H](CN(C)S(C)(=O)=O)O2", "Potency": "inconclusive: 112 µM [activator, single point]"},
      {"smiles": "Cc1c(OC(C)C(=O)NC2CC(C)(C)NC(C)(C)C2)ccc2c3c(c(=O)oc12)CCC3", "note": "(stereo not drawn)", "Potency": "inconclusive: 63.1 µM [activator, partial curve, poor fit]"},
      {"smiles": "Cc1c(N=Cc2nc3ccccc3n2C)c(=O)n(-c2ccccc2)n1C", "activation": "inconclusive: 33.4% [activator]"},
      {"smiles": "COC(=O)c1cc2oc(C)cc2n1CC(=O)Nc1ccc(C)cc1C", "activation": "inconclusive: 31% [activator]"},
      {"smiles": "CC1(C)CC(=NNC(=O)c2n[nH]c3c2CCC3)CC(C)(C)N1", "Potency": "inconclusive: 44.7 µM [activator, partial curve, poor fit]"},
      {"smiles": "O=C1NC[C@H](CCCCN2C[C@H](Cc3ccc(O)cc3)N(CCc3ccccc3)C(=O)C2=O)N(CCC2CCCCC2)C1=O", "Potency": "inconclusive: 141 µM [activator, single point]"},
      {"smiles": "Cc1ccc(S(=O)(=O)/N=C2/NC(=O)/C(=C/c3cc([N+](=O)[O-])ccc3O)S2)cc1", "activation": "inconclusive: 59.8% [activator]"},
      {"smiles": "COc1ccc(CC(N)c2csc(NC(=O)C(c3ccccc3)c3ccccc3)n2)cc1", "note": "(stereo not drawn)", "Potency": "inconclusive: 39.8 µM [activator, partial curve, poor fit]"},
      {"smiles": "COc1cc(C(=O)NCC(=O)NCCN2C(=O)S/C(=C\\c3ccccc3Cl)C2=O)cc(OC)c1OC", "Potency": "inactive"},
      {"smiles": "O=C(CCc1ccccc1)Nc1cc(NC(=O)CCc2ccccc2)cc(C(=O)O)c1", "activation": "inconclusive: 45.1% [activator]"},
      {"smiles": "CC(=O)Nc1ccc(N2Cc3ccccc3C2)cc1", "Potency": "inconclusive: 100 µM [activator, partial curve, poor fit]"},
      {"smiles": "O=C(CCn1nnc2ccccc2c1=O)NCC1CCC(C(=O)O)CC1", "note": "(stereo not drawn)", "Potency": "inconclusive: 15.8 µM [activator, partial curve, poor fit]"},
      {"smiles": "O=C(OCc1ccccc1)C1CCCN1C(=O)c1cccs1", "note": "(stereo not drawn)", "Potency": "inconclusive: 25.1 µM [activator, partial curve, poor fit]"},
      {"smiles": "CC(=O)N1C(=O)CC(C)N(C(C)=O)c2ccc([N+](=O)[O-])cc21", "note": "(stereo not drawn)", "Potency": "inconclusive: 50.1 µM [activator, partial curve, poor fit]"},
      {"smiles": "O=C(Nc1cccc(N=Cc2cc(Br)cc(Br)c2O)c1)c1ccco1", "Potency": "inactive"},
      {"smiles": "CCc1sc(C(=O)Nc2ccc(NC(C)=O)cc2)cc1C", "Potency": "inactive"},
      {"smiles": "Cc1ccc(OCC(=O)Nc2ccc(CN3CCCCC3)cc2)c(C)c1", "activation": "inconclusive: 41.8% [activator]"},
      {"smiles": "Cc1nc(SCCC(=O)O)c2ccccc2n1", "Potency": "inconclusive: 17.8 µM [activator, partial curve, poor fit]"},
      {"smiles": "O=C(O)C1CC(=O)N(c2ccc(OCc3ccc(Cl)cc3Cl)cc2)C1", "note": "(stereo not drawn)", "Potency": "inconclusive: 12.6 µM [activator, partial curve, poor fit]"},
      {"smiles": "C=CCNCCOc1c(C)cc(C)cc1Cl", "Potency": "inconclusive: 79.4 µM [activator, partial curve, poor fit]"},
      {"smiles": "Cc1cccc(C)c1NC(=S)NCCSc1ccc(Cl)cc1", "Potency": "inactive"},
      {"smiles": "COc1ccc2oc(=O)c(N3C(=O)c4ccccc4C3=O)cc2c1", "Potency": "inconclusive: 126 µM [activator, single point]"},
      {"smiles": "COc1ccc(S(=O)(=O)Cc2ccc(C(=O)NCCc3cc(OC)ccc3OC)o2)cc1", "Potency": "inactive"},
      {"smiles": "Cc1ccccc1NC(=O)CCc1c(C)nn(-c2ccc(N3CCOCC3)nn2)c1C", "Potency": "inconclusive: 39.8 µM [activator, single point]"},
      {"smiles": "CCOC(=O)C1(Cc2ccc(OC)cc2)CCN(C(=O)c2ccoc2C)CC1", "Potency": "inactive"},
      {"smiles": "CC(C)C[C@H]1CN(CCCC[C@H]2CNC(=O)C(=O)N2CC2CCCCC2)C(=O)C(=O)N1CCc1ccccc1", "activation": "inconclusive: 33.9% [activator]"},
      {"smiles": "Cc1cc(Cl)ccc1-n1c(-c2cccnc2)n[nH]c1=S", "Potency": "inconclusive: 112 µM [activator, single point]"},
      {"smiles": "CCN(C(=O)c1cccnc1)c1ccccc1", "Potency": "inactive"},
      {"smiles": "Cc1ccccc1NC(=O)CC(C)S(=O)(=O)c1ccc2c(c1)NC(=O)CO2", "note": "(stereo not drawn)", "Potency": "inactive"},
      {"smiles": "COCCNc1nnc(Cc2ccc(Cl)cc2)c(=O)[nH]1", "Potency": "inconclusive: 112 µM [activator, single point]"},
      {"smiles": "CCOC(=O)c1cnc(SCC(=O)OC)nc1N", "Potency": "inconclusive: 50.1 µM [activator, partial curve, poor fit]"},
      {"smiles": "O=C(COC(=O)CCc1nc2ccccc2c(=O)[nH]1)NC(=O)NC1CCCC1", "activation": "inconclusive: 6.93% [activator]"},
      {"smiles": "CC(C)C[C@H]1CN(CCCC[C@H]2CNC(=O)C(=O)N2CC2CCCCC2)C(=O)C(=O)N1CC1CCCCC1", "Potency": "inconclusive: 141 µM [activator, single point]"},
      {"smiles": "Cc1nnc(SCC(=O)NCc2ccc(Cl)cc2)[nH]c1=O", "activation": "inconclusive: 30.8% [activator]"},
      {"smiles": "COc1cc(OC)cc(C(=O)Nc2cccc(N3CCCC3)c2)c1", "activation": "inconclusive: 12.5% [activator] [at 57.5 µM]"},
      {"smiles": "COc1ccc(N(C(C)=O)S(=O)(=O)c2cc(OC)ccc2OC)cc1", "activation": "inconclusive: 31.6% [activator] [at 57.5 µM]"},
      {"smiles": "CCOc1cc(N2CCOCC2)c(OCC)cc1NC(=O)CSc1ncccc1C(=O)O", "Potency": "inactive"},
      {"smiles": "O=C(CSc1nnc(CNC(=O)c2c(F)cccc2Cl)o1)Nc1cccc(F)c1", "Potency": "inactive"},
      {"smiles": "CN(C)c1ccc(C2OC(=O)C3(CCCC3)C(=O)C2(C)C)cc1", "note": "(stereo not drawn)", "activation": "inconclusive: -60.5% [activator]"},
      {"smiles": "COc1cc(Nc2ccccn2)cc(C(=O)Nc2cccc(C(F)(F)F)c2)c1", "Potency": "inactive"},
      {"smiles": "C#CCOCCOCCOCCNc1nc(N2CCN(C(=O)[C@H]([C@@H](C)CC)n3cc([C@@H](N)CC(C)C)nn3)CC2)nc(N2CCN(C(=O)[C@H](Cc3cc4ccccc4[nH]3)n3cc([C@@H](N)Cc4ccc(O)cc4)nn3)CC2)n1", "Potency": "inconclusive: 44.7 µM [activator, partial curve]"},
      {"smiles": "CCOC(=O)c1cc(C#N)c(SCc2ccc(C#N)cc2)nc1C", "Potency": "inconclusive: 39.8 µM [activator, single point]"},
      {"smiles": "COc1ccc2nc(NC3=NCCC3)sc2c1", "Potency": "inactive"},
      {"smiles": "COc1ccc(CSc2nncn2C)cc1F", "Potency": "inconclusive: 112 µM [activator, single point]"},
      {"smiles": "COc1ccc(N2CCN(C(CNC(C)=O)c3ccc4c(c3)OCO4)CC2)cc1", "note": "(stereo not drawn)", "Potency": "inconclusive: 50.1 µM [activator, partial curve, poor fit]"},
      {"smiles": "CC1(C)Cc2cccc(OCC(=O)Nc3ccc(OCC(N)=O)cc3)c2O1", "Potency": "inactive"},
      {"smiles": "CC1CCCN(CCCNC(=O)CN2C(=O)CSc3ccc(S(=O)(=O)N4CCOCC4)cc32)C1", "note": "(stereo not drawn)", "Potency": "inconclusive: 44.7 µM [activator, partial curve, poor fit]"}
    ]}
  ]
}
